Literature values, collected in patent US10137103B2, “Compositions and methods for the treatment of fatty acid metabolism disorders” (The Children's Hospital of Philadelphia, priority 2015, dated 2018).
For at least one compound, name, drawing or mass did not settle the structure.

Tested on: patients with VLCAD deficiency
Settings: as a solo agent; cited from earlier work

SMILES: CC(C)(Oc1ccc(CCNC(=O)c2ccc(Cl)cc2)cc1)C(=O)O [bezafibrate]
- clinical symptoms or fatty acid oxidation during exercise: did not improve
